Experimental data as given in patent US20220204633A1 (UNIVERSIT T Z RICH, published 2022).

Protein sequences, listed by entry. Tags and fused reporters are not part of them. Lines headed by an entry give the natural chain unless they say otherwise; changes in a name come on top.
UniProt P55899: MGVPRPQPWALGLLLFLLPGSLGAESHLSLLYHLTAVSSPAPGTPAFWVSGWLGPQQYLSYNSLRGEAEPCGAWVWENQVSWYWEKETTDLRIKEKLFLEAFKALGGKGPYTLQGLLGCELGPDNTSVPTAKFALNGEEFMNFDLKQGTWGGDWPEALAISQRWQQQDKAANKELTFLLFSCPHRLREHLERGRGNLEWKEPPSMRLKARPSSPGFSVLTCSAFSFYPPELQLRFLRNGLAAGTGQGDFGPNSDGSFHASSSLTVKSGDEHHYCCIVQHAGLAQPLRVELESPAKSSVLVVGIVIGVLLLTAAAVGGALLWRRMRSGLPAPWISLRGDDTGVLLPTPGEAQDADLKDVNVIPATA

Columns and labels:
[1] = molecular target: human recombinant biotinylated FcRn (Immunitrack) (human) (UniProt P55899); test: SPR (FIG. 5 A)
[2] = molecular target: Histidine-coupled FcRn (R&D Systems) (human) (UniProt P55899); test: ELISA at pH 6.0: IL-12Fc variant coated on the plate, His-coupled human FcRn titrated 0.5 to 30 µg/ml, detected with biotinylated anti-His antibody and streptavidin-HRP; axis printed 'Binding to FcRn (OD620)'
[3] = molecular target: Histidine-coupled FcRn (R&D Systems) (human) (UniProt P55899); test: FcRn ELISA, IL-12Fc variants coated, His-FcRn titrated, pH 6.0
[4] = molecular target: human recombinant biotinylated FcRn (Immunitrack) (human) (UniProt P55899); test: SPR, human recombinant FcRn immobilized, analyte in the liquid phase, pH 6.0; Kd by equilibrium analysis, plotted normalized to IL-12Fc WT

Measured: binding

B1: human IL-12Fc NHQ (Fc fusion)
chain: IWELKKDVYVVELDWYPDAPGEMVVLTCDTPEEDGITWTLDQSSEVLGSGKTLTIQVKEFGDAGQYTCHKGGEVLSHSLLLLHKKEDGIWSTDILKDQKEPKNKTFLRCEAKNYSGRFTCWWLTTISTDLTFSVKSSRGSSDPQGVTCGAATLSAERVRGDNKEYEYSVECQEDSACPAAEESLPIEVMVDAVHKLKYENYTSSFFIRDIIKPDPPKNLQLKPLKNSRQVEVSWEYPDTWSTPHSYFSLTFCVQVQGKSKREKKDRVFTDKTSATVICRKNASISVRAQDRYYSSSWSEWASVPCSGGGGSGGGGSGGGGSRNLPVATPDPGMFPCLHHSQNLLRAVSNMLQKARQTLEFYPCTSEEIDHEDITKDKTSTVEACLPLELTKNESCLNSRETSFITNGSCLASRKTSFMMALCLSSIYEDLKMYQVEFKTMNAKLLMDPKRQIFLDQNMLAVIDELMQALNFNSETVPQKSSLEEPDFYKTKIKLCILLHAFRIRAVTIDRVMSYLNASKVDKRVESKYGPPCPPCPAPEFLGGPSVFLFPPKPKDTLMNSRTPEVTCVVVDVSQEDPEVQFNWYVDGVEVHNAKTKPREEQFNSTYRVVSVLTVLHQDWLNGKEYKCKVSNKGLPSSIEKTISKAKGQPREPQVYTLPPSPEEMTKNQVSLTCLVKGFYPSDIAVEWESNGQPENNYKTTPPVLDSDGSFFLYSRLTVDKSRWQEGNVFSCSVMHEALHNQYTQKSLSLSLGK
notes: also called NHQ variant
binds: [1] | [2] | [3] | [4]

No constants are given. Whether binding was seen depends on the method and setting. Binding calls can cover weak binding; strength is not graded here.
